# Test results: paper PMC12120788
# Amino acid sequences for entries named in this document (tags omitted).
# UniProt Q9UNF0: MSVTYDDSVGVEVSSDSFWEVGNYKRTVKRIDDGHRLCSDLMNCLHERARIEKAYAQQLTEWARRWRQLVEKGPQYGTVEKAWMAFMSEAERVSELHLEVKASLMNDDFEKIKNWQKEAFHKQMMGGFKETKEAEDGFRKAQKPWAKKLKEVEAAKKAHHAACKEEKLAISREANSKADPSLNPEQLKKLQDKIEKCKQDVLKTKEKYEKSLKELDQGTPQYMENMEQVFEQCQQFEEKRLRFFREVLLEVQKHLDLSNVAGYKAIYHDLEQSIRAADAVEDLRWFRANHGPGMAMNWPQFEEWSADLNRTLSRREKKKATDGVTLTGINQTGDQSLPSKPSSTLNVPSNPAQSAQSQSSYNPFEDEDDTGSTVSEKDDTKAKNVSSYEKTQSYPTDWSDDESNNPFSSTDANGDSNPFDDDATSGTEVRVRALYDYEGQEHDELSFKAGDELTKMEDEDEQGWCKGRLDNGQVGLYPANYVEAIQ
# UniProt O00443: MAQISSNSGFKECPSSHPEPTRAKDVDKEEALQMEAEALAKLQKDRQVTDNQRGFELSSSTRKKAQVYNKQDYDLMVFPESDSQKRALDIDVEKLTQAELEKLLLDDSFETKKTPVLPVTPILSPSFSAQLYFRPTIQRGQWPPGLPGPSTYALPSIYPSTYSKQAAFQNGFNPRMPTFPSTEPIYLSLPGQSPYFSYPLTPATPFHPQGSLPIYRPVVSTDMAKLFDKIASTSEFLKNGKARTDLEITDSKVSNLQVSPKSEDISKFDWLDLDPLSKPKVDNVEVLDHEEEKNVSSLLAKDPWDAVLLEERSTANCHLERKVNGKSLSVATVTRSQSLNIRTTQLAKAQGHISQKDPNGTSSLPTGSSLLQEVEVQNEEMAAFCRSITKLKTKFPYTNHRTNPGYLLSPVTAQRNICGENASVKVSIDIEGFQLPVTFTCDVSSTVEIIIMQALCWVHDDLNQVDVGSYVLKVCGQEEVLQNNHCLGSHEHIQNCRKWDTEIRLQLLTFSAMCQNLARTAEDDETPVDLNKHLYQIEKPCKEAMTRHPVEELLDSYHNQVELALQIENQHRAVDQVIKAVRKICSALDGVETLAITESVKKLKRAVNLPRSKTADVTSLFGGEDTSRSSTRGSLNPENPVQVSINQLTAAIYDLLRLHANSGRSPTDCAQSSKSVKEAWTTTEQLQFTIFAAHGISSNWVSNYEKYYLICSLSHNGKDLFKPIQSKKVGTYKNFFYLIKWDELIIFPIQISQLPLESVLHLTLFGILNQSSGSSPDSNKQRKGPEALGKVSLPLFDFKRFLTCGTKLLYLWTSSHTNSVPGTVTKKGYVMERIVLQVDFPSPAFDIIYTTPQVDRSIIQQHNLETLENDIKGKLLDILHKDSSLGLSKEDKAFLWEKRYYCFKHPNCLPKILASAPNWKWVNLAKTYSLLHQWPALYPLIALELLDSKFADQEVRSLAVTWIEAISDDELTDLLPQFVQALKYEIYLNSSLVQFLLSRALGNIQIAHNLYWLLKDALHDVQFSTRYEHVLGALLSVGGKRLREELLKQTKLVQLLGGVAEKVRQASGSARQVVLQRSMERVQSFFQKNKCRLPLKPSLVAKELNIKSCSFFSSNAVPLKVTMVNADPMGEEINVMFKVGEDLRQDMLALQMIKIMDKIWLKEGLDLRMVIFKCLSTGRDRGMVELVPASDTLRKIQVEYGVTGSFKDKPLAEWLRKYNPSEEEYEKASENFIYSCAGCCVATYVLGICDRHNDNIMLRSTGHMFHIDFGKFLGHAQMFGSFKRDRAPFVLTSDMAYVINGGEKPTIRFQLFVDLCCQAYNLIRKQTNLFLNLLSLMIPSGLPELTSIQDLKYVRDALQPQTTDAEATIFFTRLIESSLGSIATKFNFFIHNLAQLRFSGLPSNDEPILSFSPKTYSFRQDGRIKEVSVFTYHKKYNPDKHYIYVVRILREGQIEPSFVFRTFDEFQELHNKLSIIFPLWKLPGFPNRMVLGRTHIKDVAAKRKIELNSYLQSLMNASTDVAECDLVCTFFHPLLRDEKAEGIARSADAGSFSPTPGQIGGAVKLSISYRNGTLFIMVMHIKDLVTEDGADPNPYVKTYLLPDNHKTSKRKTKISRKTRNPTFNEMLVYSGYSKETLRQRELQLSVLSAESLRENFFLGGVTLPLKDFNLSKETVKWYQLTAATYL
# These are yes or no findings as the source states them, for the method shown. Binding seen in cells or lysates may run through a third protein. A yes stands for co-enrichment or nearness to the bait. Other partners may have been found. Where a sequence is shown, tags or fusion partners need not be part of it.
# T1: PPY-Flag (pancreatic polypeptide, predominant splicing variant, Flag-tagged) (human) (UniProt P01298)
# T1 sequence: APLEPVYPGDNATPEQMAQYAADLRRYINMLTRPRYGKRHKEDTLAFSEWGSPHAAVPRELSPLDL
# Biological target: T1, PPY-Flag (pancreatic polypeptide, predominant splicing variant, Flag-tagged) (human)
# Assay: affinity purification with mass spectrometry; human CAFs treated with enriched PPY-Flag supernatant for 24 h, cells collected, immunoprecipitation with anti-Flag antibody or IgG control; Q-Exactive HF X; proteins also found in the IgG group excluded
row,Molecule,binding
1,"epidermal growth factor receptor (EGFR), endogenous in human CAFs (from UniProt P00533 25-1210)",binds
2,"SPART, endogenous in human CAFs (protein, UniProt Q8N0X7 1-666) MEQEPQNGEPAEIKIIREAYKKAFLFVNKGLNTDELGQKEEAKNYYKQGIGHLLRGISISSKESEHTGPGWESARQMQQKMKETLQNVRTRLEILEKGLATSLQNDLQEVPKLYPEFPPKDMCEKLPEPQSFSSAPQHAEVNGNTSTPSAGAVAAPASLSLPSQSCPAEAPPAYTPQAAEGHYTVSYGTDSGEFSSVGEEFYRNHSQPPPLETLGLDADELILIPNGVQIFFVNPAGEVSAPSYPGYLRIVRFLDNSLDTVLNRPPGFLQVCDWLYPLVPDRSPVLKCTAGAYMFPDTMLQAAGCFVGVVLSSELPEDDRELFEDLLRQMSDLRLQANWNRAEEENEFQIPGRTRPSSDQLKEASGTDVKQLDQGNKDVRHKGKRGKRAKDTSSEEVNLSHIVPCEPVPEEKPKELPEWSEKVAHNILSGASWVSWGLVKGAEITGKAIQKGASKLRERIQPEEKPVEVSPAVTKGLYIAKQATGGAAKVSQFLVDGVCTVANCVGKELAPHVKKHGSKLVPESLKKDKDGKSPLDGAMVVAASSVQGFSTVWQGLECAAKCIVNNVSAETVQTVRYKYGYNAGEATHHAVDSAVNVGVTAYNINNIGIKAMVKKTATQTGHTLLEDYQIVDNSQRENQEGAANVNVRGEKDEQTKEVKEAKKKDK",binds

# Continued, values first:
row,binding,Molecule
1,binds,"PACSIN2, endogenous in human CAFs (from UniProt Q9UNF0 1-486)"
2,binds,"PIK3C2A, endogenous in human CAFs (from UniProt O00443 1-1686)"
3,binds,"RRAS, endogenous in human CAFs (protein, UniProt P10301 1-218) MSSGAASGTGRGRPRGGGPGPGDPPPSETHKLVVVGGGGVGKSALTIQFIQSYFVSDYDPTIEDSYTKICSVDGIPARLDILDTAGQEEFGAMREQYMRAGHGFLLVFAINDRQSFNEVGKLFTQILRVKDRDDFPVVLVGNKADLESQRQVPRSEASAFGASHHVAYFEASAKLRLNVDEAFEQLVRAVRKYQEQELPPSPPSAPRKKGGGCPCVLL"
